# Reference: the supplement of paper PMC3334620
# Over roughly 33,000 sequences, “E-score (-0.5 to 0.5)” has its median near -0.016; the highest 2% begin near 0.3. Some of the results follow.
# Target: T1, Yer184c (UniProt P39961)
# T1 sequence: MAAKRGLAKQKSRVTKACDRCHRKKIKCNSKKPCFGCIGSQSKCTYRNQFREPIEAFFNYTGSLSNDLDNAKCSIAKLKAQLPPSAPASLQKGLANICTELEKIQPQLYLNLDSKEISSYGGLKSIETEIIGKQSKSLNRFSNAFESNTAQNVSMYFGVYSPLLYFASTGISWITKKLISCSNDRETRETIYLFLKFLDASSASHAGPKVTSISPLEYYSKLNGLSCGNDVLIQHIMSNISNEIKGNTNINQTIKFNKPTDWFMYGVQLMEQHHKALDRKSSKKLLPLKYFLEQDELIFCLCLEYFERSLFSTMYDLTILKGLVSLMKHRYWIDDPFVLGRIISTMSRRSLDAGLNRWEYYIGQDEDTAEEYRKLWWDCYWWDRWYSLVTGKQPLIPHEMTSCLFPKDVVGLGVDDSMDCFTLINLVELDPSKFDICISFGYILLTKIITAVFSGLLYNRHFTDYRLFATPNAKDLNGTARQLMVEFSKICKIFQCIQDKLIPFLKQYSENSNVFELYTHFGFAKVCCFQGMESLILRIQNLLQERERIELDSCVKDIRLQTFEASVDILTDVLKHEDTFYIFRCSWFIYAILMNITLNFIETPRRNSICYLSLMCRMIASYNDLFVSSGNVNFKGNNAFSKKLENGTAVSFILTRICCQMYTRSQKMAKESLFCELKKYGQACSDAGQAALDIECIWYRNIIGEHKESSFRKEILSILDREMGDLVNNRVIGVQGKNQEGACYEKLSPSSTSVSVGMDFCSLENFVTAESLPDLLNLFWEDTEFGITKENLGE
# Assay: PBM E-score (8-mer binding enrichment) (E-score (-0.5 to 0.5)); higher = stronger / more preferred TF binding
# Conditions: protein concentration: 100 nM; construct: GST-full length
# Method in brief: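 GST-tagged yeast TFs (full-length or DNA-binding domain) were made by PURExpress in vitro transcription/translation and applied at about 100-200 nM to universal all-10-mer Agilent arrays. The arrays were made double-stranded by primer extension, on fresh or once-stripped slides. Bound protein was detected with fluorescent anti-GST, and scans were normalised with masliner. Each ungapped eight-base word, pooled with its reverse complement, received an E-score (modified Wilcoxon-Mann-Whitney statistic) from the Universal PBM Analysis Suite.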
row,Sequence,PBM E-score
1,AACCCGGC,0.329
2,AGTCGGGA,0.0709
3,GACTGCGC,-0.163
4,TAGGGGCA,-0.357
5,GCTCTTCA,-0.187
6,CGGATGAA,0.351
7,CTTTAAAC,-0.052
8,CATACTCA,-0.0092
9,GGCTGACC,-0.236
10,ATAGGCGA,-0.0581
11,GATAACCA,-0.044
12,AACAATCG,0.0627
13,CGGTCTAC,0.0119
14,CGTTAGTA,0.0541
15,ACTGGGGC,-0.18
16,CGACGAGC,-0.0899
17,CCTTAAGC,-0.0568
18,TCGGAGAA,0.237
19,AGGACATG,-0.173
20,TCGAGCAA,0.171
21,CCCCTAGC,-0.37
22,GGCACGCA,-0.142

row,Sequence,PBM E-score
1,ACAGTAAC,-0.0119
2,ACGCGGGG,0.0659
3,CACTGCTA,-0.0956
4,CGTCCGAG,0.16
5,AACTAGTG,-0.0163
6,AGTCGGGG,-0.204
7,CAATCCTA,-0.0715
8,AGACCTAG,-0.0887
9,ACTAAGTA,0.0167
10,AAGGGCGC,-0.00573
11,CCGGCCAC,0.24
12,AGGTATGC,-0.0367
13,CATCTACC,0.0432
14,ATAGTGCG,0.0164
15,AACACGGA,0.298
16,CGGACTTA,0.193
17,GACAGGTC,-0.235
18,GCAGGCGA,-0.119
19,TAAATAAA,0.161
20,CAGCGTTA,-0.141
21,CTATTTGA,0.124
22,CCCACCCA,-0.319

row,Sequence,PBM E-score
1,TAATGTCA,-0.064
2,GAAGATAC,0.162
3,AACTAGGA,-0.0501
4,AACTATGG,-0.162
5,GCTAGGCC,-0.0163
6,AGTATTAT,0.0439
7,AGAACTTC,-0.072
8,CAAAAATG,0.00191
9,AAAGGTTG,-0.194
10,CCTGACGC,-0.283
11,AGGACAGG,-0.113
12,AAATACGT,-0.0619
13,CTCTGCGA,-0.166
14,TATGTCGA,0.105
15,CTCGTTAC,-0.144
16,AAGGCTCC,-0.285
17,CCGACCCC,-0.21
18,AACGAACG,0.111
19,CTTGTCTA,0.0607
20,CTATCACC,-0.172
21,AGATCCCA,-0.181
22,AGACGCTC,-0.228

# For convenience, some entries already given.
row,Sequence,PBM E-score
16,AAGGCTCC,-0.285
17,CCGACCCC,-0.21
18,AACGAACG,0.111

# The list goes on:

row,Sequence,PBM E-score
1,CTTCTTGA,-0.0452
2,CTTTACAA,-0.0597
3,ACCAGAGA,-0.142
4,GGCGAATA,-0.0587
5,GCACTAAA,0.224
6,GTTAACGA,0.0155
7,ACTGGACG,-0.162
8,CAGCTGGA,-0.0431
9,AGATTGTC,0.0109
10,GGAGTCAA,-0.0229
11,GCAACACA,-0.0165
12,AACCATGT,-0.0392
13,ACCGAATG,0.178
14,AAACGCCG,0.334
15,AGTCTAAC,-0.0707
16,ACCTCTGA,-0.0461
17,GAGAGGGC,-0.293
18,CAACGGGG,-0.179
19,CCGTCAAG,0.0264
20,AACAATAA,0.255
21,ATCACCAT,0.034
22,CATTTAAC,0.133

# Pulled one by one from above (2):
row,Sequence,PBM E-score
2,CTTTACAA,-0.0597
19,CCGTCAAG,0.0264

# More results

row,Sequence,PBM E-score
1,CTCGCCAC,-0.188
2,CCCAAGGA,-0.0911
3,GTATCGAC,-0.00889
4,ATTCACCG,0.246
5,AAAGGCCC,-0.131
6,AGCATTCA,-0.0157
7,GATGCATC,0.285
8,ATCCATAA,0.168
9,AGTGATTC,0.0038
10,ACGGTAAT,0.073
11,ACATCAGA,0.0273
12,AACCTGGC,-0.0868
13,CCCCTGGC,-0.309
14,CGAGATGA,0.0904
15,CAGTGAAG,-0.0888
16,ATCTTGGG,-0.176
17,GTAGAGTA,0.0481
18,GGTCACAA,0.0767
19,GACTAATC,0.0313
20,GTCCCAAC,-0.18
21,ACTAATTC,0.172
22,CAAGGTGC,-0.142
